Patent US20220064310A1 (DEVELOPMENT CENTER FOR BIOTECHNOLOGY, published 2022)
Changes are numbered by the printed parent chain. No constants are given. Whether binding was seen depends on the method and setting. Some binding calls cover weakened binding; strength is not graded here. One block for each binder: values may come before it.

By UniProt entry, the sequences of proteins in these tests, tags left out. Where a name states a change or a piece, a line headed by the entry shows the natural chain unless it says otherwise. Residues count along the entry.
UniProt P07333: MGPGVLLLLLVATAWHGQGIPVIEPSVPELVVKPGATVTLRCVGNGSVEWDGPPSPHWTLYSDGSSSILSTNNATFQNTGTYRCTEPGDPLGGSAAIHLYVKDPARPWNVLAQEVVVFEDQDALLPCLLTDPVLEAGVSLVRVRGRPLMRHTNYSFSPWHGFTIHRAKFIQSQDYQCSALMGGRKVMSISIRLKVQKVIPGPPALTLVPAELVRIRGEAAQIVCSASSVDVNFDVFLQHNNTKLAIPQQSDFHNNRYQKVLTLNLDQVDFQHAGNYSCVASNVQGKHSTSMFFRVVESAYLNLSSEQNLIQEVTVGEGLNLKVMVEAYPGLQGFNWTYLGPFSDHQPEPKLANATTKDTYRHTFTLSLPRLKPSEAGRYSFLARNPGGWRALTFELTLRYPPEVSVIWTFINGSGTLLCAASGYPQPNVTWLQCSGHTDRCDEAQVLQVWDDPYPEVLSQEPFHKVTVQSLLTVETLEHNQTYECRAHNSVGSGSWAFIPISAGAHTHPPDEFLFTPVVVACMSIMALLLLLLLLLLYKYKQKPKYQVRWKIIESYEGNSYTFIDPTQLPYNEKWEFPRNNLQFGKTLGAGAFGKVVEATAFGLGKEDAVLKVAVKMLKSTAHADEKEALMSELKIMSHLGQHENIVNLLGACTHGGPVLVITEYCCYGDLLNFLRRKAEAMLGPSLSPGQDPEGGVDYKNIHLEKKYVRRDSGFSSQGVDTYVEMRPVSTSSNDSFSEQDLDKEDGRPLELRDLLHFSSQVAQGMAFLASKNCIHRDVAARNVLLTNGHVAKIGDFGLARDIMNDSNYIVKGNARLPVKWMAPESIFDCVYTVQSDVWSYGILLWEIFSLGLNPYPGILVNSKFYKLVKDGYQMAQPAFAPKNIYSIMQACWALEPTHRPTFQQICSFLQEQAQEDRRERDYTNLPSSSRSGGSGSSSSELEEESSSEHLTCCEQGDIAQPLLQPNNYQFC
human CSF-1R on the cell surface (THP-1 cells, endogenous; Ba/F3 cells stably expressing full-length human CSF-1R): residues 20-972 of P07333
human CSF-1R-Fc protein (M-CSF R/CD115 Fc chimera, R&D Systems): residues 20-512 of P07333

Assays:
[1] = biological target: human CSF-1R extracellular domain (CSF-1R-ECD) (human) (UniProt P07333); test: BIAcore (FIG. 2)
[2] = biological target: CSF-1R ECD variant E29A (human) (UniProt P07333); test: ELISA on CSF-1R ECD mutant
[3] = biological target: CSF-1R ECD variant W159G (human) (UniProt P07333); test: ELISA on CSF-1R ECD mutant
[4] = biological target: CSF-1R ECD variant W50G (human) (UniProt P07333); test: ELISA on CSF-1R ECD mutant
[5] = biological target: human CSF-1R on the cell surface (THP-1 cells, endogenous; Ba/F3 cells stably expressing full-length human CSF-1R) (human) (UniProt P07333); test: flow cytometry on THP-1 cells
[6] = biological target: human CSF-1R-Fc protein (M-CSF R/CD115 Fc chimera, R&D Systems) (human) (UniProt P07333); test: ELISA, M-CSF R/CD115 Fc chimera coated (FIG. 1)
[7] = biological target: human CSF-1R extracellular domain (CSF-1R-ECD) (human) (UniProt P07333); test: ELISA, coated CSF1R-ECD (unmutated), AB21 titrated, Abs450
[8] = biological target: CSF-1R ECD variant E29A (human) (UniProt P07333); test: ELISA, coated CSF-1R ECD variant E29A, AB21 titrated, Abs450
[9] = biological target: CSF-1R ECD variant W50G (human) (UniProt P07333); test: ELISA, coated CSF-1R ECD variant W50G, AB21 titrated, Abs450
[10] = biological target: CSF-1R ECD variant W159G (human) (UniProt P07333); test: ELISA, coated CSF-1R ECD variant W159G, AB21 titrated, Abs450
[11] = biological target: T1, CSF-1R-ECD-human Fc (in house) (human, UniProt P07333 20-512); test: competition ELISA on coated CSF-1R-ECD-hFc; competitors RG7155, FPA008, IMC-CS4
T1 construct: In-house fusion; also called CSF-1R-ECD-hFc; CSF1R-ECD-hFc; not shown: human Fc

[12] = biological target: T1, CSF-1R-ECD-human Fc (in house); test: competition ELISA: coated CSF-1R-ECD-hFc, first incubated with FPA008 or nothing, then AB21 titrated, mouse second antibody, 450 nm
[13] = biological target: T1, CSF-1R-ECD-human Fc (in house); test: competition ELISA: coated CSF-1R-ECD-hFc, first incubated with RG7155 (1 ug/mL), IMC-CS4 (0.25 ug/mL) or nothing, then AB21 titrated, mouse second antibody, 450 nm
[14] = biological target: T1, CSF-1R-ECD-human Fc (in house); test: blocking ELISA: coated CSF-1R-ECD-human Fc, AB21 titrated together with M-CSF, bound CSF-1 detected with biotinylated anti-CSF-1 BAF216 and streptavidin-HRP, Abs450
Method: CSF-1R-ECD-human Fe (in house) is diluted to 1.2 μg/ml with coating buffer and coating overnight at 4° C. After incubation step, plates were washed 1 time with the wash buffer and blocking with 1% casein blocking buffer at room temperature for 2 hours. Different dilutions of purified AB21 antibodies were incubated with 250 ng/ml of M-CSF (R&D system, 216-GMP-025) in dilution buffer at 37° C. for 1 hour. After 5 times of wash, the ligand which bound to the receptor can be detected by 50 ng/ml biotinylated […] clone BAF216 (R&D Systems, UK) and 1:5000 diluted streptavidin HRP (Roche Diagnostics GmbH, DE, Cat. No. 11089153001) after 1 hour incubation. Anti CSF-1R SC 2-4A5 (Santa Cruz Biotechnology, US), which inhibits the ligand-receptor interaction, was used as positive control. Plates were developed with TMB Microwell Peroxidase Substrate (KPL, 95059-154). Absorbance was measured at 450 nm. A decrease of absorbance is found, if the anti-CST-1R antibody causes a release of CSF-1 from the dimeric complex. […] Therefore, antibodies of the invention can be used to prevent or treat diseases mediated by CSF-1R or CSF-1.

[15] = biological target: T1, CSF-1R-ECD-human Fc (in house); test: ELISA, coated CSF1R-ECD-hFc 1 ug/ml, anti-kappa HRP, OD450
Method: (§1) To know the binding affinity differences among individual antibodies, ELISA method was used. ELISA plate was coated with 1 μg/ml of CSF1R-ECD-hFc, then add assay antibodies diluted from 50 nM to 1×10⁻⁵ nM (5-10× fold dilution). Assay was measured by adding anti-kappa HRP secondary antibody (1:5000 dilution). Binding curve and KD were determined with GraphPad Prism software using one site-specific binding for nonlinear fit methods. […] This loss of avidity was recovered by back mutations, as evidenced by humanized antibodies B1-Hu, B2-Hu, B1-B1, and B2-B1 clones. (See FIG. 11 and FIG. 12).

[16] = biological target: T1, CSF-1R-ECD-human Fc (in house); test: ELISA, CSF1R-ECD-hFc coated at 1 ug/ml, anti-kappa HRP
Method: as §1

- binding [1]: binds
- binding [2]: binds
- binding [3]: binds
- binding [4]: binds
- binding [5]: binds
- binding [6]: binds
- binding [7]: binds
- binding [8]: binds
- binding [9]: binds
- binding [10]: binds
- binding [11]: binds
- binding [12]: binds
- binding [13]: binds
- binding [14]: binds
B1: mouse hybridoma anti-human CSF-1R antibody mAb AB21 (antibody, V domains shown)
VH: EVQLQQSGPELEKPGASVKISCKASGYSFTGYNMNWVKQSNGKSLEWIGNIDPYYGGTTYNQKFKGKATLTVDKSSSTAYMQLKSLTSEDSAVYYCARRGDYSGSSYWYFDVWGAGTTVTVSS
VL: DIQMTQSSSYLSVSLGGRVTITCKASDHINNWLAWYQQKPGNAPRLLISGATSLETGVPSRFSGSGSGKDYTLSITSLQTEDVVTYYCQQYWSTPFTFGSGTKLEIK
notes: Mouse monoclonal antibody purified from hybridoma ascites (Protein A); also called AB21 mAb; mAb 21

- binding [15]: binds
B2: humanized AB21 B1-B1 (AB21 VHB1 with AB21 VLB1) (antibody, V domains shown)
VH: EVQLVQSGAEVKKPGATVKISCKVSGYSFTGYNMNWVQQAPGKGLEWMGNIDPYYGGTTYNQKFKGKATLTVDKSTSTAYMELSSLRSEDTAVYYCARRGDYSGSSYWYFDVWGQGTLVTVSS
VL: DIQMTQSPSSLSASLGDRVTITCKASDHINNWLAWYQQKPGKAPKLLLSGATSLETGVPSRFSGSGSGTDYTLTISSLQPEDFATYYCQQYWSTPFTFGQGTKVEIK
notes: Human IgG from vector pTCAE8-AB21 in FreeStyle 293 cells, kappa light chain; also called heavy chain B1 combined with light chain B1

- binding [16]: binds
- binding [15]: binds
B3: humanized AB21 B2-B1 (Hu AB21 VHB2 with AB21 VLB1) (antibody, V domains shown)
VH: B2 VH with T17S, Q38K, M48I
VL: B2 VL

- binding [16]: binds
- binding [15]: binds
B4: humanized AB21 B2-Hu (Hu AB21 VHB2 with Hu AB21 VL) (antibody, V domains shown)
VH: B2 VH with T17S, Q38K, M48I
VL: B2 VL with L15V, S49Y
notes: Human IgG from vector pTCAE8-AB21 in FreeStyle 293 cells, kappa light chain

- binding [15]: binds
B5: humanized AB21 Hu-Hu (Hu AB21 VH with Hu AB21 VL), the initial humanized antibody (antibody, V domains shown)
VH: B2 VH with K67R, A68V, L70I, V72A, K74T, S77D, R98T
VL: B2 VL with L15V, S49Y
notes: Human IgG from vector pTCAE8-AB21 in FreeStyle 293 cells, kappa light chain (anti-kappa HRP detection); also called heavy chain Hu combined light chain Hu
